Assay results reported in patent US20100227841A1, “Patient populations and treatment methods” (Harbor BioSciencs, Inc., priority 2008, published 2010).
At least one structure is not confirmed: it was looked up by name or label, or the drawing left a doubt.

Experiment: Blood levels after oral immediate release formulations
Assay type: in vivo, human
Details: 25 mg twice per day (50 mg/day on a single day), n=2
Description: Blood levels of 17α-ethynylandrost-5-ene-3β,7β,17β-triol were determined in adult patients dosed with a range of dosages as oral immediate release formulations. The formulations were essentially as described in example 3, with capsules containing 1 mg/capsule, 5 mg/capsule, 10 mg/capsule, 25 mg/capsule or 50 mg/capsule. These unit doses were filled into hard gelatin capsules (size #1 for […] doses; size #2 for the 1 and 5 mg doses) and micronized compound (D90˜[…]) was used.
Two capsules containing 1 mg of 17α-ethynylandrost-5-ene-3β,7β,17β-triol were administered twice per day to patients receiving a 4 mg/day total dose. […] Blood levels of the compound were at or above about 0.5 ng/mL for over 2 hours/day. […] In other patients receiving 4 mg/day for 28 days, there was a lower degree of response than patients receiving higher doses and 4 mg/day was considered to be the minimal effective dose.
Analysis of some of the evaluable patients from example 1 gave the following results. […] Drug exposure over 24 hours (AUC0-24) in patients receiving 10 mg/day (5 mg twice per day) ranged from 15.7 ng·hr/mL to 190 ng·hr/mL and from 72 ng·hr/mL to 198 ng·hr/mL in patients receiving 20 mg/day (10 mg twice per day). Drug exposure in patients receiving 40 mg/day (20 mg twice per day) ranged from 60 ng·hr/mL to 209 ng·hr/mL.

## C#C[C@]1(O)CC[C@H]2[C@@H]3[C@@H](O)C=C4C[C@@H](O)CC[C@]4(C)[C@H]3CC[C@@]21C [17α-ethynylandrost-5-ene-3β,7β,17β-triol]
  peak serum levels: 100-50
